Data as given in the supplement of paper PMC3334620.
In all, about 33,000 sequences were measured (“E-score (-0.5 to 0.5)”: median about -0.0034, highest 2% from about 0.25 on). This is one part of the list.

molecular target: T1, Yap3 (UniProt P38749); experiment: PBM E-score (8-mer binding enrichment) (E-score (-0.5 to 0.5)); higher = stronger / more preferred TF binding; details: protein concentration: 100 nM; construct: GST-full length
T1 sequence: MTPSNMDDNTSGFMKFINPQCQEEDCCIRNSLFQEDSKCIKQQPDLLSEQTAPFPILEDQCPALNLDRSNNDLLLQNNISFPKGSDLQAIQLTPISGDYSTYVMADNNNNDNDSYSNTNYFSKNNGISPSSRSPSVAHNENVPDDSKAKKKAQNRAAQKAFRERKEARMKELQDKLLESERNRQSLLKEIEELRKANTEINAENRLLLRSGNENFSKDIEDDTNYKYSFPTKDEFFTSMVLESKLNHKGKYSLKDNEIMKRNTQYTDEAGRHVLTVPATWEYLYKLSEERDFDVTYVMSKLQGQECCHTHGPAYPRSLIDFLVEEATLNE
Method in brief: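 GST-tagged yeast TFs (full-length or DNA-binding domain) were made by PURExpress in vitro transcription/translation and applied at about 100-200 nM to universal all-10-mer Agilent arrays. The arrays were made double-stranded by primer extension, on fresh or once-stripped slides. Bound protein was detected with fluorescent anti-GST, and scans were normalised with masliner. Each ungapped eight-base word, pooled with its reverse complement, received an E-score (modified Wilcoxon-Mann-Whitney statistic) from the Universal PBM Analysis Suite.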

| Sequence | PBM E-score |
| --- | --- |
| CATCGGAA | 0.186 |
| AGCTAATA | 0.104 |
| AATGCACA | 0.0833 |
| GAGTACAC | -0.115 |
| CTAGGTTA | 0.0859 |
| ACAGGTCT | -0.102 |
| CATAAACA | 0.213 |
| GTGGAAAC | 0.0323 |
| ATTAGCGG | -0.00099 |
| AAATTGAG | 0.0237 |
| CGTTTAGC | -0.0511 |
| GACTGGAC | -0.315 |
| GCCAGTAC | -0.12 |
| CTTAAACA | 0.00735 |
| CTAGGGGC | -0.168 |
| CTAGACTA | -0.0398 |
| CTGTCAGC | 0.0678 |
| CGCAACCC | -0.0769 |
| ACTACTGG | -0.0911 |
| ATCGAGGG | -0.0785 |
| CCTCATCG | 0.0887 |
| CGAATGCC | -0.0529 |
| ATGCCGCG | 0.0881 |
| CTTTAGTC | -0.0892 |
| GAGGTAGA | -0.0601 |

| Sequence | PBM E-score |
| --- | --- |
| AAGACTAC | -0.0386 |
| GCATCAAA | 0.138 |
| GACTGGCC | -0.267 |
| CCACGTGC | 0.0444 |
| AAGCAAGT | 0.0666 |
| CATCTACA | 0.144 |
| ATCCAAGC | -0.146 |
| ATAGACTA | 0.0391 |
| CCCACTAC | 0.118 |
| GTGGTCGA | -0.117 |
| AACACGGG | 0.01 |
| GGGTCATA | -0.118 |
| ACAAATCC | 0.195 |
| CCGTAAGC | 0.144 |
| TTCGAGAA | 0.0629 |
| ACCCACGC | -0.0325 |
| CACCTTGA | -0.157 |
| CCACGTGG | -0.263 |
| AGACGCAC | -0.00134 |
| AGATCCTA | 0.0833 |
| CCTCGCCA | -0.302 |
| GGCGGCTA | -0.0121 |
| CGCTTTCC | -0.0606 |
| CAGCCAAA | 0.0704 |
| AAGTGGTG | -0.086 |

| Sequence | PBM E-score |
| --- | --- |
| CCGAGTCG | -0.185 |
| ACTCATGC | 0.0756 |
| ACTCTTAA | -0.0823 |
| ACACTCAC | 0.16 |
| AACCTGCG | -0.149 |
| TAACGGCA | 0.0998 |
| CAGGAAAG | -0.104 |
| CCTAAAAG | -0.238 |
| AACGTACA | 0.157 |
| GGTAACTA | 0.186 |
| CGGCCGGC | -0.268 |
| CATTCACC | 0.14 |
| CGTGCGTC | 0.128 |
| CAAGGCTG | -0.118 |
| GGCAGTCA | -0.11 |
| ACTGTGGC | -0.231 |
| ACGCGTGA | 0.125 |
| AGCTGTCA | -0.0724 |
| AACGGCTC | 0.104 |
| CAGAAACC | 0.0742 |
| CACAGGGA | -0.149 |
| CGTTCGGA | 0.133 |
| AACGCCCA | 0.0574 |
| CGCCTTAG | -0.0973 |
| CTCCACTC | -0.303 |

Reprinted at random: two entries already listed.

| Sequence | PBM E-score |
| --- | --- |
| GTGGTCGA | -0.117 |
| CGAATGCC | -0.0529 |

(list continues)

| Sequence | PBM E-score |
| --- | --- |
| GAGTTCGC | -0.0914 |
| CAATCTAA | 0.0501 |
| AGTGTATA | -0.0181 |
| GCTAGTAA | 0.0522 |
| ACTCCAGG | -0.0934 |
| AAACTACT | 0.193 |
| GACCGGTA | -0.33 |
| AGGTTCAC | -0.0757 |
| CGCGTGAG | 0.046 |
| AGCGAGCT | 0.0546 |
| CACAGGCA | 0.0714 |
| GAGGAGCC | -0.275 |
| CCTAGCCC | -0.213 |
| AAAGATGT | 0.0237 |
| CGTTGATC | 0.0509 |
| ATATCGCG | 0.251 |
| AACGGAGA | 0.133 |
| ACTTTAGA | -0.0113 |
| AAACACCG | 0.0566 |
| ACGATAGC | -0.0134 |
| AGCGACGC | -0.117 |
| ACTTCACG | 0.0216 |
| GGGGCTTA | -0.228 |
| AGGGACAC | 0.147 |
| CAGTCTGC | -0.0875 |

Some of the entries so far, bar-delimited:
Sequence | PBM E-score
ATATCGCG | 0.251
AACGGAGA | 0.133
ACTTTAGA | -0.0113
AAACACCG | 0.0566
ACGATAGC | -0.0134
AGCGACGC | -0.117

Later entries

| Sequence | PBM E-score |
| --- | --- |
| CACAGATA | -0.105 |
| ACGCATTC | 0.0461 |
| AATTCCGC | 0.15 |
| AAAAGCAT | 0.125 |
| GGACCATA | -0.138 |
| ATGACCAC | 0.121 |
| GATTCAAC | 0.0463 |
| GTGCGGAA | 0.0764 |
| CGTGCAAG | -0.102 |
| CATATCCG | 0.169 |
| GAATCCAC | 0.0717 |
| AGGTAAAC | 0.0545 |
| AGCTCTAT | 0.0447 |
| CTCCGTCC | -0.316 |
| AGCACCAT | -0.267 |
| ATATAGCG | 0.0882 |
| CAACGTGC | 0.0377 |
| GTACGACA | 0.163 |
| GGTTATTA | 0.158 |
| ATCACCCA | -0.0559 |
| GGAATCCC | -0.106 |
| ACCTATTG | -0.0239 |
| GACAGCGA | -0.201 |
| CTTAATTC | 0.183 |
| GGATCACC | -0.0859 |

| Sequence | PBM E-score |
| --- | --- |
| CCGTGGCA | -0.125 |
| CGCTTAGC | -0.0814 |
| ACGAATAT | 0.212 |
| GCGGCTCC | -0.272 |
| AGCACCCG | -0.0751 |
| GCACGAGA | -0.0452 |
| GCCGGTTA | -0.103 |
| CCGCGATA | 0.0701 |
| CATTTTAA | 0.219 |
| AGCTCCAG | -0.12 |
| AATAATCA | 0.11 |
| CCATCGGC | -0.117 |
| CTCTTCAC | 0.0352 |
| GCTTTTGA | -0.0979 |
| CATCATGG | -0.00375 |
| CAATTAGA | 0.0631 |
| CACGTGAC | 0.00807 |
| CAACCAGG | -0.139 |
| ACTGGGAA | 0.102 |
| GAAGTATC | 0.116 |
| ACGTGAGT | -0.0251 |
| AAGTTATG | 0.256 |
| ATCTACGA | -0.203 |
| ACCTATAT | 0.204 |
| TACGACCA | -0.00899 |

| Sequence | PBM E-score |
| --- | --- |
| AGAGCACA | 0.0746 |
| AATCGCTC | -0.104 |
| CCGGTAGA | -0.0819 |
| ACTCGGAT | 0.0525 |
| GGTTTATA | 0.0813 |
| GATCGTCA | -0.0725 |
| AAGAGCAG | -0.065 |
| ACCACTGC | -0.048 |
| AGGACGCA | -0.0726 |
| CCCCGCGG | -0.125 |
| GGTCGCTA | -0.248 |
| AAGCTATG | -0.152 |
| GCACAACA | 0.151 |
| TCGCTCCA | -0.123 |
| CCGGTGTC | -0.108 |
| ACAGCGTG | -0.0549 |
| ACTTGGTG | -0.121 |
| AGAGAACT | -0.0225 |
| CGCACGAA | 0.0256 |
| AGCCCGAA | -0.15 |
| CAAGTCGA | -0.00174 |
| GACTTCAA | -0.118 |
